# Results: PubChem BioAssay AID2685 (National Center for Advancing Translational Sciences (NCATS), 2010)
# This is one part of the list. These are further read-outs of the screen, such as a control signal, another cell line or another target. No call is given for them. Compounds called inactive in the main read-out are mostly missing here. Potencies come from curve fits of mixed quality, noted in brackets.
# Assay: qHTS Assay for Lipid Storage Modulators in Drosophila S3 Cells;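 on cell number change: cells counted by Cell Tracker Red CMTPX staining in the red channel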
# Conditions: BODIPY lipid droplet fluorescence, 18-24 h; for cell number change: measured here: cell count max response, cells fed with added oleic acid
# Outline: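 Drosophila S3 cells got compounds at several concentrations plus oleic acid (400 uM solution). Laser-scanning cytometry with 488 nm excitation read lipid droplets at 500-530 nm and cells at 575-640 nm. Percent activity was relative to 20 uM Triacsin C.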
# [1] = measured here: cell number channel AC50, cells fed with added oleic acid
# [2] = measured here: lipid fluorescence (Fed channel) AC50, cells fed with added oleic acid
smiles,measurement,setting,value
O=C(COC(=O)c1ccc(Br)o1)NC1CCCCC1,cell number change,,6.66%
COC(=O)c1sc(N)c(C(=O)OC)c1COC(=O)CCNS(=O)(=O)c1ccc(C)cc1,cell number change,,4.03%
same,AC50,[1],"51.7 nM [rising, full curve, poor fit]"
same,AC50,[2],"58 nM [rising, full curve]"
O=C(NNS(=O)(=O)c1ccc(F)cc1)c1cnccn1,cell number change,,-14.9%
same,AC50,[2],"580 nM [rising, single point]"
COc1c(Cl)cccc1-c1cn2ccccc2n1,cell number change,,23.6%
same,AC50,[2],"461 nM [rising, full curve, poor fit]"
O=C(CN1C(=O)NC(c2ccccc2)(c2ccccc2)C1=O)N1CCOCC1,cell number change,,5.1%
same,AC50,[2],"6510 nM [falling, single point]"
COc1ccc(OC)c(NC(=O)/C=C/c2ccc(S(=O)(=O)N3CCOCC3)cc2)c1,cell number change,,2.81%
CCOc1ccccc1/C=N/NC(=O)C[n+]1ccccc1,cell number change,,1.3%
same,AC50,[1],"116 nM [falling, full curve, poor fit]"
same,AC50,[2],"146 nM [falling, full curve, poor fit]"
COc1ccccc1CNC(=O)CCNC(=O)Cn1cnc2ccccc2c1=O,cell number change,,-44.6%
same,AC50,[1],"58 nM [falling, full curve]"
same,AC50,[2],"16400 nM [falling, partial curve, poor fit]"
O=C(Nc1ccc2c(c1)OCO2)C1CCN(c2ccc(S(=O)(=O)N3CCOCC3)cc2)CC1,cell number change,,5.4%
same,AC50,[2],"6510 nM [rising, partial curve]"
N#C/C(=C\c1ccc(Cl)cc1Cl)c1n[nH]c(Cn2cncn2)n1,cell number change,,-23.8%
same,AC50,[2],"6510 nM [rising, single point]"
COc1nccnc1NS(=O)(=O)c1ccc(NCc2cc(Br)ccc2O)cc1,cell number change,,15.3%
same,AC50,[2],"29100 nM [rising, single point]"
Cc1ncc(N=Nc2ccc(F)cc2)c(-c2ccc(Cl)cc2)n1,AC50,[1],"3260 nM [falling, partial curve]"
CSc1ccccc1NC(=O)CSCc1nc2sc(C)c(C)c2c(=O)[nH]1,cell number change,,6.02%
CC(C)N(c1ccccc1)c1ccc(NC(=O)CCl)cc1,cell number change,,-43.9%
same,AC50,[1],"1300 nM [rising, full curve]"
CC(=O)N(Cc1ccccc1)c1ccc(C(=O)O)cc1,cell number change,,-33.2%
same,AC50,[2],"651 nM [falling, full curve]"
Cc1nnc(SCC(=O)Nc2ccc3[nH]c(=O)[nH]c3c2)s1,cell number change,,-35%
same,AC50,[1],"1640 nM [falling, full curve]"
Cc1csc(CNc2ncnc3ccc(-c4ccco4)cc23)c1,cell number change,,-0.451%
same,AC50,[1],"164 nM [falling, full curve, poor fit]"
same,AC50,[2],"130 nM [falling, full curve, poor fit]"
Cc1ccc(/C=C(\C#N)C(=O)Nc2ccccn2)o1,cell number change,,13.1%
same,AC50,[2],"6510 nM [falling, single point]"
CCN(CC)CCNC(=O)c1ccc(NC(=O)c2cccc(S(=O)(=O)N3c4ccccc4CC3C)c2)cc1 (stereo not given),cell number change,,14.6%
Cc1cnc(C(=O)Nc2ccccc2-c2ccc(C)o2)cn1,cell number change,,24.8%
same,AC50,[1],"2310 nM [rising, full curve, poor fit]"
C=Cn1c(C(=O)O)cc(CC)c1-c1ccccc1,AC50,[1],"6510 nM [rising, single point]"
Cc1ccc(C)c(S(=O)(=O)N2CCN(CC(=O)Nc3cc(C)on3)CC2)c1,AC50,[1],"1460 nM [rising, partial curve]"
same,AC50,[2],"164 nM [rising, full curve, poor fit]"
O=C(COc1ccc2c(c1)CCC2)N1CCN(c2ccccc2F)CC1,cell number change,,27.1%
same,AC50,[2],"259 nM [falling, partial curve, poor fit]"
CCN(CC(=O)NC(C)C)C(=O)C(CCSC)NC(=O)c1ccccc1OC (stereo not given),cell number change,,11.8%
same,AC50,[1],"92 nM [falling, full curve]"
same,AC50,[2],"92 nM [falling, full curve, poor fit]"
COc1ccc(-c2ccc(C(=O)O)c(=O)[nH]2)cc1,AC50,[1],"651 nM [falling, single point]"
same,AC50,[2],"580 nM [falling, single point]"
COc1cc(/C=N/NC(=O)C(N)=O)ccc1OCC(=O)N1C(C)CCCC1C (stereo not given),cell number change,,21.4%
same,AC50,[2],"5.17 nM [rising, full curve, poor fit]"
CCC(Oc1ccc(C)c(C)c1)C(=O)O (stereo not given),cell number change,,-26.8%
same,AC50,[1],"820 nM [falling, full curve, poor fit]"
same,AC50,[2],"3660 nM [falling, full curve]"
CCN(C(=O)COC(=O)c1n[nH]c2ccccc12)c1ccccc1,cell number change,,-5.32%
C=CCNC(=O)CN(c1ccc(F)cc1)S(=O)(=O)c1ccc(OC)cc1,cell number change,,4.73%
same,AC50,[2],"3660 nM [rising, single point]"
COc1ccc(CNC(=O)COC(=O)CCS(=O)(=O)c2ccc(C)cc2)cc1OC,cell number change,,8%
N#Cc1cc2c(nc1SCC(O)CS(=O)(=O)Cc1ccc(Cl)cc1)CCCC2 (stereo not given),cell number change,,-13.9%
same,AC50,[2],"580 nM [rising, full curve]"

# As a short view, some entries already given:
smiles,measurement,setting,value
O=C(CN1C(=O)NC(c2ccccc2)(c2ccccc2)C1=O)N1CCOCC1,cell number change,,5.1%
same,AC50,[2],"6510 nM [falling, single point]"
COc1ccc(OC)c(NC(=O)/C=C/c2ccc(S(=O)(=O)N3CCOCC3)cc2)c1,cell number change,,2.81%
